This is a selection; strong and weak results do not stand in their true shares. At the low end of the ranking, values are background and their order means little.

By UniProt entry, the sequences of proteins in these tests, tags left out. Where a name states a change or a piece, a line headed by the entry shows the natural chain unless it says otherwise.
UniProt O43186: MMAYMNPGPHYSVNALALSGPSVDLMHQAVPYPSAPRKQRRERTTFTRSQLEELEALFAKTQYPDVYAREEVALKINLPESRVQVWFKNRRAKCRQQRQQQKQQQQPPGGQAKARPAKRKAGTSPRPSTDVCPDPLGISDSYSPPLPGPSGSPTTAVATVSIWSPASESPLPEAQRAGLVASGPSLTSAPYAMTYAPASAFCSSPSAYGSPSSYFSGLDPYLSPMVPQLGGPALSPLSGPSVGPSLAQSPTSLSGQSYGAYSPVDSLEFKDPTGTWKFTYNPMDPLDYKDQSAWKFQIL

This is an account of results in PMC7862700.

What all share (experiment): DAPPL (digital affinity profiling via proximity ligation, sequencing)
Holding throughout (details): 10 mM Tris-HCl pH 7.5, 50 mM NaCl, 1 mM DTT, 4% glycerol, room temperature, 30 min; GST-TFs on glutathione beads, 16-mer random dsDNA library, 0.1% …; high values mean tight binding; double strand, one strand shown; scale: fold enrichment (6-mer frequency, TF over GST control)

One assay deals with T1, FEV (UniProt Q99581).
T1 sequence: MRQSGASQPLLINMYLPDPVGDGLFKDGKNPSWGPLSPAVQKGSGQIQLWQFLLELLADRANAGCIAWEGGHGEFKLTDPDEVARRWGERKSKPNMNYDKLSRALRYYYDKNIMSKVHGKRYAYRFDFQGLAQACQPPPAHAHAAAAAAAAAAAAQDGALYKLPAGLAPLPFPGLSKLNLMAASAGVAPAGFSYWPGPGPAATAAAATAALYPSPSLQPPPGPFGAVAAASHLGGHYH

The target in another assay is CRX (UniProt O43186).
The next assay has as its target T2, ELF5 (UniProt Q9UKW6-2).
T2 sequence: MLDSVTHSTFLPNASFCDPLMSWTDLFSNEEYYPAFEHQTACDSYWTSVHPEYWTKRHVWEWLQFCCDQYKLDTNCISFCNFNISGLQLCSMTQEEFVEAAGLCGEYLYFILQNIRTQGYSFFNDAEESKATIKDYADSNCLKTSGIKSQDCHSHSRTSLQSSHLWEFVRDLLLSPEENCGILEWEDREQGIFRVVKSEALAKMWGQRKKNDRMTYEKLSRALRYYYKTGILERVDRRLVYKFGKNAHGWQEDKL

For the sequence CGTACG, the binding signal stood at 0.972 with FEV, 0.772 with CRX and 0.97 in the assay with ELF5.

Regarding TGAAAT, the binding signal in the assay with FEV was 0.945; with CRX it was 1.03; with ELF5, 0.933.

In the case of AGTTTG, the binding signal in the assay with FEV worked out at 0.863; in the assay with CRX it was 0.773; with ELF5, 0.919.

Turning to CAAAGT, the binding signal with FEV is 0.943; with CRX, 0.918; with ELF5 it was 0.97.

Regarding TGATTG, the binding signal in the assay with FEV is 0.958; with CRX, 0.966; with ELF5, 0.929.

Take GCATCT: the binding signal with FEV turned out to be 0.998; with CRX, 0.962; in the assay with ELF5, 0.961.

As for GATATT, the binding signal in the assay with FEV was found to be 1.04; with CRX, 1.31; with ELF5, 1.25.

Consider GCAATC, for which the binding signal with FEV stood at 1.05; with CRX, 1; in the assay with ELF5, 0.936.

Take GGCCCT: the binding signal with FEV amounted to 0.955; with CRX, 0.846; in the assay with ELF5, 0.948.

In the case of TCTGAG, the binding signal in the assay with FEV worked out at 0.944; with CRX, 1.04; with ELF5, 0.858.

On to AATGTG, for which the binding signal in the assay with FEV was 0.991; with CRX, 0.841; with ELF5, 0.967.

Consider CATAGA, for which the binding signal with FEV is 0.843; with CRX, 0.901; in the assay with ELF5, 0.863.

Turning to AAACAG, the results for the binding signal with FEV, in the assay with CRX and in the assay with ELF5 were 0.977, 0.795 and 1.03, respectively.

Regarding GTCACG, the binding signal with FEV was 0.935; in the assay with CRX, 0.702; with ELF5, 0.981.

In the case of TCAGAC, the binding signal with FEV turned out to be 0.932; in the assay with CRX it was 0.879; with ELF5 it was 0.839.

On to GTGCCT, for which the binding signal is 0.969 with FEV, 0.821 with CRX and 1 in the assay with ELF5.

On to GTATCG, for which the figures for the binding signal in the assay with FEV, with CRX and with ELF5 were 0.905, 0.77 and 0.876, respectively.

As for CATCAG, the figures for the binding signal in the assay with FEV, with CRX and with ELF5 were 0.864, 0.77 and 0.862, respectively.

As for CTAGCC, the values for the binding signal with FEV, with CRX and with ELF5 were 0.996, 0.963 and 0.886, respectively.

For the sequence GTCTAG, the binding signal in the assay with FEV came out at 0.796; with CRX, 0.864; with ELF5, 0.799.

For the sequence ACGCTC, the binding signal with FEV is 0.986; in the assay with CRX it was 0.884; with ELF5 it was 0.947.

With TCATGA, the values for the binding signal with FEV, with CRX and with ELF5 were 0.985, 1.07 and 1.05, respectively.

For the sequence CACAGC, the results for the binding signal with FEV, with CRX and with ELF5 were 1.03, 0.793 and 0.957, respectively.

Turning to GTATGA, the figures for the binding signal with FEV, with CRX and with ELF5 were 0.918, 0.777 and 0.978, respectively.

Regarding AGGAAT, the values for the binding signal in the assay with FEV, with CRX and with ELF5 were 0.728, 0.882 and 0.884, respectively.

Consider CGCGCA, for which the binding signal with FEV turned out to be 0.945; in the assay with CRX it was 0.806; in the assay with ELF5, 0.978.

Take CGTTGG: the figures for the binding signal with FEV, with CRX and in the assay with ELF5 were 0.873, 0.672 and 0.873, respectively.

Take ACGAGC: the binding signal with FEV turned out to be 0.955; with CRX, 0.843; with ELF5, 0.911.

For the sequence CGCTGT, the binding signal worked out at 0.884 with FEV, 0.744 in the assay with CRX and 0.898 with ELF5.

Turning to CCACAC, the binding signal with FEV stood at 1.11; with CRX it was 0.816; with ELF5, 0.992.

Take GACGTT: the binding signal turned out to be 0.913 with FEV, 0.792 with CRX and 1.01 in the assay with ELF5.

Take ACGAAG: the binding signal with FEV is 0.934; with CRX it was 0.831; with ELF5, 0.925.

Turning to CGAGTA, the binding signal with FEV was found to be 0.781; with CRX it was 0.847; with ELF5, 0.826.

With ACGCGA, the figures for the binding signal with FEV, in the assay with CRX and with ELF5 were 0.858, 0.881 and 0.862, respectively.

For AGGTCC, the binding signal with FEV was found to be 0.919; in the assay with CRX, 0.665; with ELF5 it was 0.98.

With GGCCTG, the values for the binding signal in the assay with FEV, with CRX and in the assay with ELF5 were 0.993, 0.825 and 0.924, respectively.

With TTTAGA, the binding signal was 0.939 with FEV, 1.59 with CRX and 0.883 in the assay with ELF5.

On to GAAGGT, for which the binding signal with FEV amounted to 0.776; with CRX, 0.788; with ELF5, 0.894.

Regarding CAGTAT, the results for the binding signal with FEV, in the assay with CRX and with ELF5 were 0.925, 0.906 and 0.874, respectively.

Turning to AACTGT, the binding signal with FEV came to 0.917; with CRX, 0.786; with ELF5 it was 0.944.

For the sequence TGGAAC, the binding signal in the assay with FEV came to 1.02; in the assay with CRX it was 0.993; with ELF5 it was 0.989.

On to TCGCGA, for which the binding signal in the assay with FEV turned out to be 0.825; with CRX it was 0.992; in the assay with ELF5 it was 0.877.

Take TTGGAA: the binding signal was 0.894 with FEV, 1.07 in the assay with CRX and 0.99 in the assay with ELF5.

On to TCCGTC, for which the binding signal in the assay with FEV is 1.38; with CRX it was 0.978; in the assay with ELF5 it was 1.57.

As to GACCAA, the binding signal with FEV was 0.96; with CRX it was 0.751; in the assay with ELF5, 0.904.

On to CGTCGA, for which the binding signal in the assay with FEV is 0.864; in the assay with CRX it was 0.812; with ELF5, 0.918.

As for GATCGA, the binding signal in the assay with FEV stood at 0.805; with CRX it was 0.861; with ELF5 it was 0.732.

Consider ATAGAC, for which the figures for the binding signal with FEV, with CRX and with ELF5 were 0.947, 0.914 and 0.957, respectively.

As for CTGACA, the binding signal with FEV was found to be 1.19; in the assay with CRX, 0.911; in the assay with ELF5 it was 1.26.

As for GTTAGC, the binding signal was determined as 1 in the assay with FEV, 0.967 with CRX and 0.93 with ELF5.

On to CTCGGT, for which the values for the binding signal with FEV, with CRX and in the assay with ELF5 were 1.01, 0.945 and 0.995, respectively.

On to CAAGCT, for which the binding signal with FEV was 0.923; with CRX, 1.1; with ELF5 it was 0.875.

Take CAAGCC: the binding signal worked out at 0.943 in the assay with FEV, 0.946 with CRX and 0.849 in the assay with ELF5.

Consider TACGGG, for which the binding signal in the assay with FEV amounted to 0.954; in the assay with CRX, 0.982; with ELF5 it was 0.877.

In the case of CCAGCA, the binding signal with FEV amounted to 0.943; with CRX it was 0.847; with ELF5, 0.824.

For CTGGCG, the results for the binding signal with FEV, in the assay with CRX and with ELF5 were 0.803, 0.629 and 0.757, respectively.

For the sequence TGGGTT, the results for the binding signal with FEV, in the assay with CRX and with ELF5 were 0.999, 0.996 and 1.01, respectively.

Consider TGGTGG, for which the binding signal with FEV was determined as 0.974; with CRX, 0.789; with ELF5 it was 0.986.

Regarding GACTGC, the binding signal was 0.967 with FEV, 0.721 in the assay with CRX and 0.93 with ELF5.

Regarding ATAGGT, the binding signal in the assay with FEV is 0.992; with CRX it was 0.96; with ELF5 it was 0.98.

Take CCAAGC: the binding signal was found to be 0.978 with FEV, 0.959 with CRX and 0.937 with ELF5.

In the case of GTGTAC, the binding signal came out at 0.951 with FEV, 0.627 with CRX and 0.898 in the assay with ELF5.

On to GATACC, for which the binding signal stood at 0.996 with FEV, 0.763 in the assay with CRX and 0.896 with ELF5.

For the sequence GAAGAT, the binding signal with FEV turned out to be 0.812; with CRX it was 1.12; in the assay with ELF5 it was 0.923.

For the sequence GAAAGC, the binding signal is 0.893 in the assay with FEV, 0.872 with CRX and 0.879 with ELF5.

Take TAGTCA: the binding signal with FEV amounted to 0.795; with CRX it was 0.958; with ELF5, 0.86.

As for GAATGG, the figures for the binding signal with FEV, with CRX and with ELF5 were 0.944, 0.824 and 0.843, respectively.

Consider GCGACG, for which the results for the binding signal in the assay with FEV, in the assay with CRX and with ELF5 were 0.815, 0.656 and 0.843, respectively.

On to CAAAAG, for which the binding signal in the assay with FEV is 0.93; with CRX, 1.02; with ELF5, 1.

With GTTGCT, the binding signal in the assay with FEV came out at 1.18; with CRX, 1.06; in the assay with ELF5 it was 1.27.

TGCAGA: the binding signal came out at 0.953 with FEV, 0.882 with CRX and 0.952 with ELF5.

For the sequence CGAACG, the figures for the binding signal with FEV, in the assay with CRX and with ELF5 were 0.947, 0.851 and 0.976, respectively.

With GTTGTA, the binding signal is 0.946 with FEV, 0.88 with CRX and 0.992 in the assay with ELF5.

Regarding CCCACC, the figures for the binding signal with FEV, with CRX and with ELF5 were 1.17, 0.909 and 1.15, respectively.

Take TTCGTC: the binding signal is 1.21 with FEV, 1.09 in the assay with CRX and 1.18 with ELF5.

In the case of CATAGC, the binding signal worked out at 0.94 in the assay with FEV, 0.856 in the assay with CRX and 0.911 with ELF5.

Regarding CATCGT, the binding signal with FEV turned out to be 0.848; with CRX it was 0.756; in the assay with ELF5, 0.82.

In the case of ACCGTT, the binding signal was 0.93 in the assay with FEV, 0.81 with CRX and 0.97 in the assay with ELF5.

Turning to GCAGCA, the binding signal with FEV turned out to be 0.973; with CRX, 0.72; with ELF5, 0.918.

Turning to GCAACA, the binding signal came out at 0.993 in the assay with FEV, 0.689 with CRX and 0.992 with ELF5.

On to GCGAAA, for which the figures for the binding signal in the assay with FEV, with CRX and in the assay with ELF5 were 0.959, 0.828 and 0.923, respectively.

TAAGGC: the binding signal with FEV is 0.899; with CRX, 1.52; with ELF5 it was 0.953.

Consider GGACTC, for which the binding signal worked out at 0.967 with FEV, 0.751 in the assay with CRX and 0.939 with ELF5.

On to TCACGT, for which the binding signal with FEV stood at 1.19; in the assay with CRX it was 1.15; with ELF5, 1.19.
